Measurements reported in patent US20060121042A1.
These are yes or no findings as the source states them, for the method shown. Some results given as binding are weak or reduced against the parent protein; the word gives no strength.

Chains of the proteins cited; added tags and fusions are not shown. Lines headed by an entry give the natural chain unless they say otherwise; changes in a name come on top. Residues count along the entry.
UniProt Q03145, residues 26-535: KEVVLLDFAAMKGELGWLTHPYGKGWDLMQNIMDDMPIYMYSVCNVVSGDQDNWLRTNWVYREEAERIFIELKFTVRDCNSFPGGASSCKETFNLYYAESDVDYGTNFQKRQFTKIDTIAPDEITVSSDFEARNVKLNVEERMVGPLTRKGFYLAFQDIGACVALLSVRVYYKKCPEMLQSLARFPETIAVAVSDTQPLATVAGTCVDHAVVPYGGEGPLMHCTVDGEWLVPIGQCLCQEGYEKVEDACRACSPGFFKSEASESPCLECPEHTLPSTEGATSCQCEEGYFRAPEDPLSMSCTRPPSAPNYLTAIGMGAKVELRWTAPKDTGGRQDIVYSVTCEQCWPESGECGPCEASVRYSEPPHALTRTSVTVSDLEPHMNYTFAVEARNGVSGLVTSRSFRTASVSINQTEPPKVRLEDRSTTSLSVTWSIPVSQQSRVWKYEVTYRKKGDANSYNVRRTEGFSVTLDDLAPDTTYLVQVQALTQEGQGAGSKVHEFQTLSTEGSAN
UniProt Q03137, residues 20-547: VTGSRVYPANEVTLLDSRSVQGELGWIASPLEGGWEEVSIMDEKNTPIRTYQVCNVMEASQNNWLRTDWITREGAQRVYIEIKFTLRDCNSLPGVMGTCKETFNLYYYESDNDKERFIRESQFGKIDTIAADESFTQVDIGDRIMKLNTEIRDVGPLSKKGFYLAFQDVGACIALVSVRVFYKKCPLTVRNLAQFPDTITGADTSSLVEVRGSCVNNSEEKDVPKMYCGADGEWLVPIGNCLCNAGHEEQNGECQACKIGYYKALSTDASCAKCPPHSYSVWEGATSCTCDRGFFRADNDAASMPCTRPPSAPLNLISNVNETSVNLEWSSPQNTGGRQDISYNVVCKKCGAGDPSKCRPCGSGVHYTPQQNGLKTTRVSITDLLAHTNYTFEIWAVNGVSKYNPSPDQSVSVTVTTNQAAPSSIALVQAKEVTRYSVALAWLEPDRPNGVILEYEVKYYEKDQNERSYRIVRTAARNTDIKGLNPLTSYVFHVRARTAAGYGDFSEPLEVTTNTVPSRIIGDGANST
UniProt Q61772, residues 28-555: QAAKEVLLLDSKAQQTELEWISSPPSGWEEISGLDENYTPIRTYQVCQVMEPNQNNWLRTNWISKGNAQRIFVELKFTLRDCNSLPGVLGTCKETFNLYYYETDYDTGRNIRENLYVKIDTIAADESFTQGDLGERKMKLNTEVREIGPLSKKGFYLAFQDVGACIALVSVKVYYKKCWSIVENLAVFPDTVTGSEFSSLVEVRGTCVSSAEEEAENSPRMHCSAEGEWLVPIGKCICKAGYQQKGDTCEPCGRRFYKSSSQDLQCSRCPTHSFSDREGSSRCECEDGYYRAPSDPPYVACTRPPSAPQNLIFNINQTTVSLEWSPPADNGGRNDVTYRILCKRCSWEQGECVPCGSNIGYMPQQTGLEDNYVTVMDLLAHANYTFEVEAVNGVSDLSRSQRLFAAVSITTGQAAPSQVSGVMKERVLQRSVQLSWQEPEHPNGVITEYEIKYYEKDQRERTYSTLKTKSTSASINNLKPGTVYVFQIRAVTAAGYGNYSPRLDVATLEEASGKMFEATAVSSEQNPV
UniProt P54764: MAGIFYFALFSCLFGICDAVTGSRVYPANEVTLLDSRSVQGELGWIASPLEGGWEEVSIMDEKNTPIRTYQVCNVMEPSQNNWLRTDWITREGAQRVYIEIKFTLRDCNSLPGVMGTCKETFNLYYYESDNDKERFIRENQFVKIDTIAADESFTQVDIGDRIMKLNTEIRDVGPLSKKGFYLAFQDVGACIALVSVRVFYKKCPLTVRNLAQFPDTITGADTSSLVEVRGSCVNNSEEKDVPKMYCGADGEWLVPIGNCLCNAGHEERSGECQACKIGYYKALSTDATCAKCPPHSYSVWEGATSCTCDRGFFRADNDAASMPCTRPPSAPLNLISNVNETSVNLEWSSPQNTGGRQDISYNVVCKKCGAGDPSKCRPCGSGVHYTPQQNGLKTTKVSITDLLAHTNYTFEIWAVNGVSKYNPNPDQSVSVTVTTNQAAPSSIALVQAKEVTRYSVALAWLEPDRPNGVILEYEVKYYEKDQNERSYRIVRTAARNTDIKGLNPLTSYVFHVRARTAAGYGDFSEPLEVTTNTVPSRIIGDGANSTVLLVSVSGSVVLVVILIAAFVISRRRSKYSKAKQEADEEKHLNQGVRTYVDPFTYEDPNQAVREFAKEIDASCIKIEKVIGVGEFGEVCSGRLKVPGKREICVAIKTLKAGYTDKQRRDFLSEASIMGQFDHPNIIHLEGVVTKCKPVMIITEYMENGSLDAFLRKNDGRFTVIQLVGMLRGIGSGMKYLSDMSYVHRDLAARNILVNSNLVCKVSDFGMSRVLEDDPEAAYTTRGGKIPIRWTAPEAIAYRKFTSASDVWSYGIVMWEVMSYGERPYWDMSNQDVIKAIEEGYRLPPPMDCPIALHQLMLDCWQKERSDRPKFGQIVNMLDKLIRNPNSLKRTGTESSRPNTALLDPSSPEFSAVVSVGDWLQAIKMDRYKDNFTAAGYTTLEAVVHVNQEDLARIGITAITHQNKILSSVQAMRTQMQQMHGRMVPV

Columns and labels:
murine EphA2 (mouse) = murine EphA2 (mouse) (UniProt Q03145); test: activity ELISA, IgG on coated antigen
r human EphA1 (human) = target: T1, r human EphA1 (human) (UniProt P21709); test: activity ELISA, IgG on coated antigen
T1 sequence (receptor-Fc fusion, looked up): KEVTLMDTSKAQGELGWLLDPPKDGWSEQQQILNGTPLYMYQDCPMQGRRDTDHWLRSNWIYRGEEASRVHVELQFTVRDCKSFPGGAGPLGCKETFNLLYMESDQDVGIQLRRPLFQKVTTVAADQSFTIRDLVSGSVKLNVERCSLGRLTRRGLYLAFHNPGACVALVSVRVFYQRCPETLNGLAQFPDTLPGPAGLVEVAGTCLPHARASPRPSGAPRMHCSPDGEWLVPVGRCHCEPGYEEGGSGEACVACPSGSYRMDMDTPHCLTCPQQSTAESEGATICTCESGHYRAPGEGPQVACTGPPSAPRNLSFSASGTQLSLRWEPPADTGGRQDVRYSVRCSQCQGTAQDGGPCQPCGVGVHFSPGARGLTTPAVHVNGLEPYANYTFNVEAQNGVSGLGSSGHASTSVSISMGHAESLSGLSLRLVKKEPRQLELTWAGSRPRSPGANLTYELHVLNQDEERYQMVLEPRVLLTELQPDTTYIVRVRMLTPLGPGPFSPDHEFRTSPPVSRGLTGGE

r murine EphA3 (mouse) = target: T2, r murine EphA3 (mouse) (UniProt P29319); test: activity ELISA, IgG on coated antigen
T2 sequence (receptor-Fc fusion, looked up): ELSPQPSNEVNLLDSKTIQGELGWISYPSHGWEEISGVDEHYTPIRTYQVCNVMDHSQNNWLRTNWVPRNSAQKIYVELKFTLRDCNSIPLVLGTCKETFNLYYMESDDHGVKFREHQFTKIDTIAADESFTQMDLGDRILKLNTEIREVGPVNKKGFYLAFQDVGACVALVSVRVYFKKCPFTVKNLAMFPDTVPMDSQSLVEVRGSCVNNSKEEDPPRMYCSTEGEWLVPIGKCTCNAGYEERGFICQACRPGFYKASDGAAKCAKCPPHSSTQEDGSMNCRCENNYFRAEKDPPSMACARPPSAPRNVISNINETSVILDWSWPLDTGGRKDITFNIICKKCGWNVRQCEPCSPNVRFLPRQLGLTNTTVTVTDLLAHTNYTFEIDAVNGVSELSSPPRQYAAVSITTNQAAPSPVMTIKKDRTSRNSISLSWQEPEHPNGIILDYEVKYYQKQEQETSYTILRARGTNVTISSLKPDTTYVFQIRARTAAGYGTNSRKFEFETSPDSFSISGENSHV

r murine EphA4 (mouse) = r murine EphA4 (mouse) (UniProt Q03137); test: activity ELISA, IgG on coated antigen
r murine EphA7 (mouse) = r murine EphA7 (mouse) (UniProt Q61772); test: activity ELISA, IgG on coated antigen
[1] = target: Human EphA4-His fusion protein (human) (UniProt P54764); test: activity ELISA, IgG on 0.5 ug/ml human EphA4
[2] = target: Human EphA4-Fc fusion protein (human) (UniProt P54764); test: BIAcore, IgG immobilized, human EphA4-Fc as analyte (FIG. 15)
[3] = target: Human EphA4-His fusion protein (human) (UniProt P54764); test: BIAcore, IgG immobilized, human EphA4-His as analyte (FIG. 15)
[4] = target: Human EphA4-His fusion protein (human) (UniProt P54764); test: ELISA, receptor coated on the plate, purified IgG, anti-human kappa-HRP
hEphA1 (human) = target: T3, hEphA1 (human) (UniProt P21709); test: as above
T3 sequence (receptor-Fc fusion, looked up): T1 sequence (receptor-Fc fusion, looked up)

mEphA2 (mouse) = mEphA2 (mouse) (UniProt Q03145); test: as above
mEphA3 (mouse) = target: T4, mEphA3 (mouse) (UniProt P29319); test: as above
T4 sequence (receptor-Fc fusion, looked up): T2 sequence (receptor-Fc fusion, looked up)

mEphA4 (mouse) = mEphA4 (mouse) (UniProt Q03137); test: as above
mEphA7 (mouse) = mEphA7 (mouse) (UniProt Q61772); test: as above

binding (murine EphA2 (mouse)): binds
binding (r human EphA1 (human)): binds
binding (r murine EphA3 (mouse)): binds
binding (r murine EphA4 (mouse)): binds
binding (r murine EphA7 (mouse)): binds
binding [1]: binds
binding [2]: binds
binding [3]: binds
binding [4]: binds
binding (hEphA1 (human)): binds
binding (mEphA2 (mouse)): binds
binding (mEphA3 (mouse)): binds
binding (mEphA4 (mouse)): binds
binding (mEphA7 (mouse)): binds
B1: 8B4 IgG1 (affinity optimized combinatorial variant of mAb GEA44 in human IgG1 format) (antibody, V domains shown)
VH: QVQLLQSGAEVKKPGASVKVPCKASGYTFTSRAMSWVRQAPGQGLEWMGWINTNTGNPTYAQGFTGRFVFSLDTSVSTAYLQISSLKAEDTAVYYCARVRLTVYGDGMDVWGQGTLVTVSS
VL: EIVLTQSPATLSVSPGERATLSCRASQSVSSNPAWYQQKPGQAPRLLIYGLSTRATGIPDRFSASGSGTDFTLTISRVEPEDFAVYYCQQYGPSWTFGQGTKVEIK
